Data as given in patent US20260035468A1 (INSTITUT NATIONAL DE LA SANT ET DE LA RECHERCHE M DICALE, published 2026).
Results are given in words; binding and its absence hold for the method and conditions named. Some binding calls cover weakened binding; strength is not graded here.

The chains behind the UniProt entries cited, without tags or fusion partners. Where a name states a change or a piece, a line headed by the entry shows the natural chain unless it says otherwise.
UniProt P43406: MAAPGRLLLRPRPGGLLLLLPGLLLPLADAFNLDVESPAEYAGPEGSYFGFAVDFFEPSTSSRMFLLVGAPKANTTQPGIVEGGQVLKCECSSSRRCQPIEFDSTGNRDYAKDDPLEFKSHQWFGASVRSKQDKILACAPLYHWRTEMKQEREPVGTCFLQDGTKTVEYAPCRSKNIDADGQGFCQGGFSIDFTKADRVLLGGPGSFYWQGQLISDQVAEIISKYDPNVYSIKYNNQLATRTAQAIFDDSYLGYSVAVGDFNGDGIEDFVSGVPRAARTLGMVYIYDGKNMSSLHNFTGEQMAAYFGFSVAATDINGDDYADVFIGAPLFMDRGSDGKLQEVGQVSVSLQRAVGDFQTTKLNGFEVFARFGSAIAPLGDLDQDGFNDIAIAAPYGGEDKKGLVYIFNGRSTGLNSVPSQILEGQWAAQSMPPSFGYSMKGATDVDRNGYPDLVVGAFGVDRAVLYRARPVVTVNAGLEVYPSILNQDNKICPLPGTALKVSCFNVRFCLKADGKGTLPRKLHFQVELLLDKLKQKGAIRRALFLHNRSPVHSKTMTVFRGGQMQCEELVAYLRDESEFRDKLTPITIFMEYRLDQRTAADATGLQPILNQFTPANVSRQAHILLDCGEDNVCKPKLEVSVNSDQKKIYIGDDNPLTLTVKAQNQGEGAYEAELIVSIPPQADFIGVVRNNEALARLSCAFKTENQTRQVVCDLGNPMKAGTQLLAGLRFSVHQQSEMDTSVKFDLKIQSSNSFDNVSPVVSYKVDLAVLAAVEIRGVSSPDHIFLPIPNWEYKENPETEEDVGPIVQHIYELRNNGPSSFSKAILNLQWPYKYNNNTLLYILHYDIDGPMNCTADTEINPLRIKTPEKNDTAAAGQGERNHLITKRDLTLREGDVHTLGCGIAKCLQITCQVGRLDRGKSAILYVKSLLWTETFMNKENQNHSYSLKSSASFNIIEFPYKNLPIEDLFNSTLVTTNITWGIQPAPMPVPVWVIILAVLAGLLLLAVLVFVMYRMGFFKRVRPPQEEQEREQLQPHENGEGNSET
UniProt P26012: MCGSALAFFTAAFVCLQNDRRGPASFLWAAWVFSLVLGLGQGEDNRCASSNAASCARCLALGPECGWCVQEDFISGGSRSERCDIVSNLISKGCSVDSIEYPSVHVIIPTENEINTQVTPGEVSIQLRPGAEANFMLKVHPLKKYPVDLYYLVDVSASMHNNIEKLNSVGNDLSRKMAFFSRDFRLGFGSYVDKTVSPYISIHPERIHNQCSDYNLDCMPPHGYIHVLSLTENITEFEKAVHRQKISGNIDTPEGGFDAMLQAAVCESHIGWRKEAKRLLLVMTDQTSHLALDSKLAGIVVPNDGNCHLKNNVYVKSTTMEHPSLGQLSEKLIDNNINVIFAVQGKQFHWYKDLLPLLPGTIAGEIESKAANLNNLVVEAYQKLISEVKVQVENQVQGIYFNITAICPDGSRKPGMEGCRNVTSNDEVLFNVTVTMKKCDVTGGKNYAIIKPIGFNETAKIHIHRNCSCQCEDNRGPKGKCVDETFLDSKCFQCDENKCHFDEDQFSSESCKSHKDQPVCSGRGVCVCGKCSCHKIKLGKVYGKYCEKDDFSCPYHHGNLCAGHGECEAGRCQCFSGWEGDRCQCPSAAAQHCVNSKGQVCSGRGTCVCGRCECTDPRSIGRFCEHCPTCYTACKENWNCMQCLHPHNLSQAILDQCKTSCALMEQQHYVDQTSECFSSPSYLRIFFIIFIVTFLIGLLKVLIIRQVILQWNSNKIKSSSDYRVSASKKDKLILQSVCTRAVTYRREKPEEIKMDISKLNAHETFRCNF
UniProt P06756: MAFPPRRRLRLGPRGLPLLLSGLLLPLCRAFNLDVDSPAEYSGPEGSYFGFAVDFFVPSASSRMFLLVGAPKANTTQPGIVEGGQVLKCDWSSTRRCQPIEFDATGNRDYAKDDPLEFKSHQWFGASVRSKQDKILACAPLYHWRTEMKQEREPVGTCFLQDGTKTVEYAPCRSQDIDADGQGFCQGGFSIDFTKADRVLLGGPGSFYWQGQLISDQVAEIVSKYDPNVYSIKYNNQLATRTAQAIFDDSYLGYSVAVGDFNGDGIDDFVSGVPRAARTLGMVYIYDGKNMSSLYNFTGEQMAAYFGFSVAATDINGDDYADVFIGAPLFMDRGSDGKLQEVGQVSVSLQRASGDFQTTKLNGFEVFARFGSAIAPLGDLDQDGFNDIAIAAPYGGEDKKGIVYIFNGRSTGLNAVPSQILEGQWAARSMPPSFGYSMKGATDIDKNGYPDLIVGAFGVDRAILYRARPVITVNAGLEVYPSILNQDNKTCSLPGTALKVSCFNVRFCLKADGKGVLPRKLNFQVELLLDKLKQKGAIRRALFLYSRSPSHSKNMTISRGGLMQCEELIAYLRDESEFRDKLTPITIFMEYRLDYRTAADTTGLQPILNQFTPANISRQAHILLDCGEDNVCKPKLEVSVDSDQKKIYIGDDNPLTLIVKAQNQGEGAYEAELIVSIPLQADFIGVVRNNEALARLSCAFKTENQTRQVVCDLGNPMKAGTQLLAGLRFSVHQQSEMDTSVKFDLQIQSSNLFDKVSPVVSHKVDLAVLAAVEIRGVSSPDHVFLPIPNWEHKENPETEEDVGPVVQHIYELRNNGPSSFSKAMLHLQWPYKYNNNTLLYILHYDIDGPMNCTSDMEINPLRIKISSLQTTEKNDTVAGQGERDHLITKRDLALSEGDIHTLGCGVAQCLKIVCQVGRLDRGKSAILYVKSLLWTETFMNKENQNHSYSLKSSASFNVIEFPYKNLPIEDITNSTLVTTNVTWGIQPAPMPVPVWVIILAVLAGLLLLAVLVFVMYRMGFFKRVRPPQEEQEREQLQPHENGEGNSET

Legend:
[1] = target: T1, β8 chain of αvβ8 integrin (Itgβ8) expressed on mouse Tregs (mouse) (UniProt Q0VBD0+P43406); experiment: flow cytometry on mouse lymph node Tregs (FIG. 2)
[2] = target: T1, β8 chain of αvβ8 integrin (Itgβ8) expressed on mouse Tregs (mouse); experiment: conclusion of the example (flow cytometry on Tregs)
[3] = target: T2, recombinant mouse Itgβ8 (mouse) (UniProt Q0VBD0); experiment: ELISA of hybridoma supernatants on recombinant mouse Itgβ8
T2 sequence (looked up): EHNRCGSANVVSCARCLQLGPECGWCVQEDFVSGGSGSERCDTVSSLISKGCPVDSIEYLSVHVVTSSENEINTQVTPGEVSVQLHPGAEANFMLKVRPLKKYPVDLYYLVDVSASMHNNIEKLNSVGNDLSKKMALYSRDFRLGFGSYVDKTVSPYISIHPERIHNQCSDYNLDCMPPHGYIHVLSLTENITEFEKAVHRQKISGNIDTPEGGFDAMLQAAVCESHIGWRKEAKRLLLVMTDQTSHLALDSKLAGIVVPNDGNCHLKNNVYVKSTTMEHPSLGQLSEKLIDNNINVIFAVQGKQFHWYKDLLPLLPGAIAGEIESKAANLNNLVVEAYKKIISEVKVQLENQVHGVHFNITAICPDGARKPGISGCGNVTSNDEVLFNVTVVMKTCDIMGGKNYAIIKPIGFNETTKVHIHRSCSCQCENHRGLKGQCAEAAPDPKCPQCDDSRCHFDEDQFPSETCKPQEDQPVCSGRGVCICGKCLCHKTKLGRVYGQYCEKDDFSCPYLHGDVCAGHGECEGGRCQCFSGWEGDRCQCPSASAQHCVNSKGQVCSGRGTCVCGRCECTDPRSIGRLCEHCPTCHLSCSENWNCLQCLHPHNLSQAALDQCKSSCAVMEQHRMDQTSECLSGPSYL

[4] = target: T1, β8 chain of αvβ8 integrin (Itgβ8) expressed on mouse Tregs (mouse); experiment: flow cytometry, supernatants on mouse lymph node cells, anti-IgM secondary
[5] = target: β8 chain of αvβ8 integrin (Itgβ8) expressed on human tumor Treg cells (human) (UniProt P26012+P06756); experiment: staining of cells of one fresh human colonic tumor (data not shown)

Measured: binding

B1: Mab 9B2 (antibody, V domains shown)
VH: QVQLQQSGAELAKPGASVKLSCKASGYTFTRYWMHWVKQRPGQGLEWIGHINPSSGYTKYNQKFKDKATLTADKSSSTAYMQLSSLTYEDSAVYYCAREVYYYGSSYGDFDYWGQGTTLTVSS
VL: QIVLTQSPAIMSASPGEKVTISCSASSSVSYMYWYQQKPGSSPKPWIYRTSNLASGVPARFSGSGSGTSYSLTISSMEAEDAATYYCQQYHSYPLTFGAGTKLELK
notes: Mouse hybridoma antibody tested as clone supernatant; also called 9B2 mAb; clone 1
binds: [1] | [2] | [3] | [4]

B2: Mab 1G10H5 (antibody, V domains shown)
VH: QVQLQQSGAELARPGASVKMSCKASGYTFTSYTMHWVKQRPGQGLEWIGYINPSSGYTKYNQKFKDKATLTADKSSSTAYMQLSSLTSEDSAVYYCARAEGLRAWFAYWGQGTLVTVSA
VL: DIVMTQSQKFMSTSVGDRVSVTCKASQNVGTNVAWYQQKPGQSPKALIYSASYRYSGVPDHFTGSGSGTDFTLTIINVQSEDLAEYFCQQYNSYPYTFGGGTKLEIK
binds: [1] | [2] | [3] | [4] | [5]

B3: Mab 1G10G4 (antibody, V domains shown)
VH: QVQLQQSGAELARPGASVKMSCKASGYTFTSYTMHWVKQRPGQGLEWIGYINPSSGYTKYNQKFKDKATLTADKSSSTAYMQLSSLTSEDSAVYYCARAEGLRAWFAYWGQGTLVTVSA
VL: DIVMTQSQKFMSTSVGDRVSVTCKASQNVGTNVAWYQQKPGQSPKALIYSASYRYSGVPDHFTGSGSGTDFTLTIINVQSEDLAEYFCQQYNSYPYTFGGGTKLEIK
notes: Mouse hybridoma antibody tested as clone supernatant; also called 1G10G4 mAb; clone 3
binds: [1] | [2] | [3] | [4]
